Measurements reported in PubChem BioAssay AID602196 (INSERM, 2012)

Test: 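Modifiers of cisplatin sensitivity in A549 cells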
Cell system: human A549 lung cancer cells
Knock-down reagent: siRNA pair against human genes
Timing: 48 h transfection before cisplatin; time from cisplatin to read-out not stated
Treatment: cisplatin at a dose killing half of control-siRNA cells; exact dose and duration not given
Read-out: 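Shift in cisplatin death relative to control siRNA, from -50 (all cells die) to +50 (no cells die); siRNAs harmful on their own scored 0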
Direction: two-siRNA summed score (-2 to +2): higher = both siRNAs protect from cisplatin killing; -2 means both sensitise
Call rule: 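siRNAs harmful alone (LDH or WST-1) get 0; others get +1 for less and -1 for more cisplatin killing; genes are active when the two siRNAs give the same sign, summing to ±2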
Meaning of the calls: active = both siRNAs shift cisplatin killing the same way; inactive = no consistent shift, or siRNA harmful alone
Shown is a random part of about 23,000 reagents tested. 455 of them (2%) count as active. 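Active includes both protection and sensitisation; some change values fall well beyond the stated -50 to +50 range.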 A number with no mark means an inactive call. Not all columns of the deposit are shown. Not stated in the record: the amount of reagent.

The first 4 entries, ahead of the listing:
gene | two-siRNA summed score (-2 to +2)
VDAC2 | 0
JOSD1 | 0
LOC441166 | 0
OMA1 | 1

The list itself, from the first entry:
gene | two-siRNA summed score (-2 to +2)
VDAC2 | 0
JOSD1 | 0
LOC441166 | 0
OMA1 | 1
LOC101928906 | 0
TFB1M | 0
LOC440123 | 1
POLD2 | 0
LOC342970 | 1
HAS3 | 1
CRYBA4 | -1
FBXO8 | -1
CHRNA5 | 0
HSPH1 | 0
SYPL2 | 0
CCL2 | 0
ABHD15 | 0
LINC01801 | 0
SRPRA | 0
H4C6 | 0
CDK19 | 1
LOC441392 | 1
COQ2 | 0
LOC440746 | 0
FLJ45684 (retired record) | 0
GJA1 | 1
UFC1 | 0
ATAD2 | -1
TMED2 | 0
GAB1 | 0
ANKRD13C | 0
MRPL36 | 0
FLJ42393 | 0
DHX16 | 1
LOC401081 | 0
DYM | 0
LOC200491 | 1
SUPT3H | 0
SPIB | 0
